The list shows a part of the results.
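Note: competitive chemoproteomic profiling in live THP-1 cells with an iodoacetamide desthiobiotin (IA-DTB) probe, comparing probe-labelled peptide intensities in compound-treated cells against DMSO-treated controls.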

Amino acid sequences for entries named in this document (tags omitted). A change or cut given only in a name is not applied to a line headed by its entry.
UniProt Q86UX7, whole entry, looked up: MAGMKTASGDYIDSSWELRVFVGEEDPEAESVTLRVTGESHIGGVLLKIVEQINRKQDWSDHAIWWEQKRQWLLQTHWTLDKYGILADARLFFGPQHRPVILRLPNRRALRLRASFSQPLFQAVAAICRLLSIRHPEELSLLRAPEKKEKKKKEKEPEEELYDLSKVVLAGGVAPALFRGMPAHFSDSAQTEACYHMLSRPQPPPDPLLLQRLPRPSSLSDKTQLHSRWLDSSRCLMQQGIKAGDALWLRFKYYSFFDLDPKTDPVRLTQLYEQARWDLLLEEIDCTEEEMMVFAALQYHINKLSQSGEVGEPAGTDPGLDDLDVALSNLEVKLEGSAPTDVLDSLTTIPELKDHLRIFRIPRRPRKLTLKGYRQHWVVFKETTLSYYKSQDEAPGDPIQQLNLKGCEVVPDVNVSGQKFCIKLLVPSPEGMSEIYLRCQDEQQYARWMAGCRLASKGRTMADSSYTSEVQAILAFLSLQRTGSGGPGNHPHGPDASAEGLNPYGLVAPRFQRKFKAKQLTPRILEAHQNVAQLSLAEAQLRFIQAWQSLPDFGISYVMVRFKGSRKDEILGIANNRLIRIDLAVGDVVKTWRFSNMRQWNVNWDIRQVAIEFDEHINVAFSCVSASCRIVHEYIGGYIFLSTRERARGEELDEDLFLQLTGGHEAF
UniProt O15287: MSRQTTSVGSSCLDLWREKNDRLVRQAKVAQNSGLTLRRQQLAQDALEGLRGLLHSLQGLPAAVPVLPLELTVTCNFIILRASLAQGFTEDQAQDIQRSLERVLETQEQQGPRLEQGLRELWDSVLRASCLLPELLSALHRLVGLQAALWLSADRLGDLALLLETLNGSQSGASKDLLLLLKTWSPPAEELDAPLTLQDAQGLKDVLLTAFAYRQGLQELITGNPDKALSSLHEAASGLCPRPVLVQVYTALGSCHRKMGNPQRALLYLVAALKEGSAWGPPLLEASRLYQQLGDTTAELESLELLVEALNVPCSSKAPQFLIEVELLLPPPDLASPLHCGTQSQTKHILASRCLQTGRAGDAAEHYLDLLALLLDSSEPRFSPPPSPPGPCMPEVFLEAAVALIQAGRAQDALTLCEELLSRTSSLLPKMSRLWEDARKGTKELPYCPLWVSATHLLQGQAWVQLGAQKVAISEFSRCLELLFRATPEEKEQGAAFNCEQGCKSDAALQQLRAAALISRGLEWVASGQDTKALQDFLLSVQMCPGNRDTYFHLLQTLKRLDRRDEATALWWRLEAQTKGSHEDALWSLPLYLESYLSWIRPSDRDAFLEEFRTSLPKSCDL
UniProt Q9UK61: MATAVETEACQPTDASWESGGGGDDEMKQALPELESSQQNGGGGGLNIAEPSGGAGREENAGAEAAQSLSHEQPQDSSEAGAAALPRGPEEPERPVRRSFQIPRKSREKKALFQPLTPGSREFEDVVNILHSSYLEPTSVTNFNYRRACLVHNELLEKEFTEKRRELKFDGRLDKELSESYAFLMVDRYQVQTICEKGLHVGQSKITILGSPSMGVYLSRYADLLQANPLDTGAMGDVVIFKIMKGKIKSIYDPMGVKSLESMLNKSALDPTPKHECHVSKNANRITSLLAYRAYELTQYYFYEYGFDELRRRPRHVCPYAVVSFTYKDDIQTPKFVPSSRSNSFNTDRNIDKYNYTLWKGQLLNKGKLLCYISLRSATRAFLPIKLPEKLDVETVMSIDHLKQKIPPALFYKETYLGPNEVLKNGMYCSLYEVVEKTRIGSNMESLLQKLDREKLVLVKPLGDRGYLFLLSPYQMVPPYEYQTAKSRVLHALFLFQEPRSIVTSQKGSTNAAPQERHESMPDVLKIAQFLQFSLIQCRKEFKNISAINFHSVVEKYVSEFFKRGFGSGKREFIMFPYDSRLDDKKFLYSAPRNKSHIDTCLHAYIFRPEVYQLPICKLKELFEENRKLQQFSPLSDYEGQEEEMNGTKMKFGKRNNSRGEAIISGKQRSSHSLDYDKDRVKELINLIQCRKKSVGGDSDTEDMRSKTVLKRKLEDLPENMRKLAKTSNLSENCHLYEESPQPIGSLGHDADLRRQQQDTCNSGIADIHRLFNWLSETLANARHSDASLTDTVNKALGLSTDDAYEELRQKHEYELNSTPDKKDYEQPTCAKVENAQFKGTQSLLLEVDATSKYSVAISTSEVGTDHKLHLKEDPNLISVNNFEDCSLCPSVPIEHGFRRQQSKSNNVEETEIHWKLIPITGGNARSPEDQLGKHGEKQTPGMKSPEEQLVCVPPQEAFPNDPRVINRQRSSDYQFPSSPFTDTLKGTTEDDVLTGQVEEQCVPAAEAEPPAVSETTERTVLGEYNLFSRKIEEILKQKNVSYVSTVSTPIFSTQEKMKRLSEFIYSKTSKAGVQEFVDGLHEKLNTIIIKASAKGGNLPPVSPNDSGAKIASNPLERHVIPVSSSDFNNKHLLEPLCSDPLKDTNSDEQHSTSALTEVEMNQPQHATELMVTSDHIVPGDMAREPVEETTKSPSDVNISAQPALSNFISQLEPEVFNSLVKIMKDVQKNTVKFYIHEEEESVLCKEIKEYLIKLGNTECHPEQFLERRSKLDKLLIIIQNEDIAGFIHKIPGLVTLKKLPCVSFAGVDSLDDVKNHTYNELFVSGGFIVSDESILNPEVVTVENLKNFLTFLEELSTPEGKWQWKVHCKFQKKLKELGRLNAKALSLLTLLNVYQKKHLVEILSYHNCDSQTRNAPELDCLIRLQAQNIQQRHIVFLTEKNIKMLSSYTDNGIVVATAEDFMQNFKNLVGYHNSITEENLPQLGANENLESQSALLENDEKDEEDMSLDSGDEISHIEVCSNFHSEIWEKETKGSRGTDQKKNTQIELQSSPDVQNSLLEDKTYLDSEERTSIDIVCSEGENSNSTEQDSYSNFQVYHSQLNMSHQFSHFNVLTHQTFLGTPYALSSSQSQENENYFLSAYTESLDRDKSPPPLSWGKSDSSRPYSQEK
UniProt Q9NYY8: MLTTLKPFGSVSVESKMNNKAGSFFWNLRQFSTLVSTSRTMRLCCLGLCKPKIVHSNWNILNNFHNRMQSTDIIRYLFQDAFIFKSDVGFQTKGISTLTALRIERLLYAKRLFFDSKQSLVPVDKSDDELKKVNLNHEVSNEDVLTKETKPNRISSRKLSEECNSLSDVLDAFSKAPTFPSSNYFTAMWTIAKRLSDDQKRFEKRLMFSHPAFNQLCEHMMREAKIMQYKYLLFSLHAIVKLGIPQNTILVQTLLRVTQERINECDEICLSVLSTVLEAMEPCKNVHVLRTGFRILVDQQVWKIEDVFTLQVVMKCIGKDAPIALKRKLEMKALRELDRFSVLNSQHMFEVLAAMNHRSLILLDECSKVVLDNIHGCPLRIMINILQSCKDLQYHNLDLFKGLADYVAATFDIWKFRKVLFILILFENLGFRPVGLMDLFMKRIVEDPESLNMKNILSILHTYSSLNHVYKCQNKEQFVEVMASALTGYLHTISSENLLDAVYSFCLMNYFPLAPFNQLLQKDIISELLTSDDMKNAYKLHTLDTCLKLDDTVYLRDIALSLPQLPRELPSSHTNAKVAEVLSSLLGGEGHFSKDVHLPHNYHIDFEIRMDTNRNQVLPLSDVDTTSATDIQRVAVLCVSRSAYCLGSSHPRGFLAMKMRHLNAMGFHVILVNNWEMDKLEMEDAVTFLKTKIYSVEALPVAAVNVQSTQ
UniProt Q8N531: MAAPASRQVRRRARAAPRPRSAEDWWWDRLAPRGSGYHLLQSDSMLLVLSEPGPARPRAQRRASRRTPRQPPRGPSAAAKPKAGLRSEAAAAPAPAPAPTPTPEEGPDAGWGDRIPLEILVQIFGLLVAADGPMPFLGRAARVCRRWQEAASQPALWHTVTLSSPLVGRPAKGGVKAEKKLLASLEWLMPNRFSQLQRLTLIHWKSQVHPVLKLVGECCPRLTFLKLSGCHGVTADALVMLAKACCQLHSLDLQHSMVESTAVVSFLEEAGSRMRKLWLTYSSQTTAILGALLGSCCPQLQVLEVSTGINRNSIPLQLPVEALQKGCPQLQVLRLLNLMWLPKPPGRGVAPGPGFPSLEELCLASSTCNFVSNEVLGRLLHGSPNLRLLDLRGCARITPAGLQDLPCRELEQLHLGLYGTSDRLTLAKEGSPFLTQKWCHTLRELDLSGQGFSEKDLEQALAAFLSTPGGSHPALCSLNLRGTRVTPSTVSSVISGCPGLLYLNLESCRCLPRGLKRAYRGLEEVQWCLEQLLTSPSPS
UniProt Q9BZQ8: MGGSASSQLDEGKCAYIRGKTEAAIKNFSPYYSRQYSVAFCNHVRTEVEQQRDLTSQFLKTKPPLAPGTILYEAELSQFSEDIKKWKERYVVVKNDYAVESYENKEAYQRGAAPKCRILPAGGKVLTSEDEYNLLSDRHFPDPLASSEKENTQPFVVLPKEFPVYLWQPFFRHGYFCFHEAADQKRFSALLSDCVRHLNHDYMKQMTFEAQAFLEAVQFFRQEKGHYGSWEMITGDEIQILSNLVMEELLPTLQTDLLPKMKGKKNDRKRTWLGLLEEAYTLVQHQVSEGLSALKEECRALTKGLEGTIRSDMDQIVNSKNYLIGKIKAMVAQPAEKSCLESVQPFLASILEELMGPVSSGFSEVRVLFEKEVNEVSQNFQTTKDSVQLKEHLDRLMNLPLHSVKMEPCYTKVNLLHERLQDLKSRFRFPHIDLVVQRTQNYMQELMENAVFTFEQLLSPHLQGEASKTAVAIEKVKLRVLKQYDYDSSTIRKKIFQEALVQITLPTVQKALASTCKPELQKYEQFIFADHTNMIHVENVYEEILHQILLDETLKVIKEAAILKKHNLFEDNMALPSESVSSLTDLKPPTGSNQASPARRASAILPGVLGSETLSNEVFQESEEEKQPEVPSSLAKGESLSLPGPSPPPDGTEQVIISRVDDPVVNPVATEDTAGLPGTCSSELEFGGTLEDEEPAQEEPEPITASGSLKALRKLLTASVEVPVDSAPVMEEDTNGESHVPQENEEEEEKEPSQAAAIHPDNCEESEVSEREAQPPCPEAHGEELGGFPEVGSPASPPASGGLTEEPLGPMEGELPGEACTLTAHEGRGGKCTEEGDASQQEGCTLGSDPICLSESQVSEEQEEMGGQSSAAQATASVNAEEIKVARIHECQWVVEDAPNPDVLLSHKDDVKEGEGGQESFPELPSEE
UniProt P09467: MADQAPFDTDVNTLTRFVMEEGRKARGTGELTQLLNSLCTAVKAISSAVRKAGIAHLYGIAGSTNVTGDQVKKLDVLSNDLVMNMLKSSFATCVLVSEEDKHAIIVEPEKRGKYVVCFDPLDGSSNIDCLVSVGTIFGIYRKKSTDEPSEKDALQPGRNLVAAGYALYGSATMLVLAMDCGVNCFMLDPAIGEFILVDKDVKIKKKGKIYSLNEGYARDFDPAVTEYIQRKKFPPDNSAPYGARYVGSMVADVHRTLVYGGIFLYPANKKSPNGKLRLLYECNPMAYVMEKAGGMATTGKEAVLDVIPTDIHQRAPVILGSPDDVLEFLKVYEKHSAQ
UniProt Q9NX38: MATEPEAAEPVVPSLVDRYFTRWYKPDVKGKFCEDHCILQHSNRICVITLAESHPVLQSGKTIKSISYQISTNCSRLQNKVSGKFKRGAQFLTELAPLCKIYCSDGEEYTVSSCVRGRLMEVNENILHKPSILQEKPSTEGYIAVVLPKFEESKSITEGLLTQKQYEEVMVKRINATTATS
UniProt Q9H0X4: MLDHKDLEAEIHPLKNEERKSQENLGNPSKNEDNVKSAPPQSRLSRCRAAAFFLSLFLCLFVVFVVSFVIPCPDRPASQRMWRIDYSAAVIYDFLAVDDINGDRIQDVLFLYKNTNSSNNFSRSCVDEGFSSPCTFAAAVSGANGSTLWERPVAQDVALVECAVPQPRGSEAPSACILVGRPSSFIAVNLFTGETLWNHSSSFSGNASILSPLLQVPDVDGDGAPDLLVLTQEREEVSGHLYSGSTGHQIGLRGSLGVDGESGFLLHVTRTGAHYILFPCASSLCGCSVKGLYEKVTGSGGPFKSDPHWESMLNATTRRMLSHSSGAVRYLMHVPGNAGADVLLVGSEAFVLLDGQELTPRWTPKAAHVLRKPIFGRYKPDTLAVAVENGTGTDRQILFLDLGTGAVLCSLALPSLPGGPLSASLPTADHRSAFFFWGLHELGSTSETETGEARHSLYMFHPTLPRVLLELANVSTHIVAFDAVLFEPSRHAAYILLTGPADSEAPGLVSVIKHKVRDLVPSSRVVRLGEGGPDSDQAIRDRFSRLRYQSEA
UniProt Q9H469: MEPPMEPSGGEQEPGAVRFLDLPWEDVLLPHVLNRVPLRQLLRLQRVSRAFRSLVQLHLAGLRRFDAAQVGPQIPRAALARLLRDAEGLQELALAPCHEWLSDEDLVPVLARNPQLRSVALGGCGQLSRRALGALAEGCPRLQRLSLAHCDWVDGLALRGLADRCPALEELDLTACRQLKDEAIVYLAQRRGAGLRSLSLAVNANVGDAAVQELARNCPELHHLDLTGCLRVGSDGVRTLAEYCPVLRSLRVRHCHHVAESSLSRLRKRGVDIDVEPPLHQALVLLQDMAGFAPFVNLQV

Compound in the test: CC1Cc2ccccc2N1C(=O)C1CCCN(C1)C(=O)CCl (mixture of isomers) [TRIM25 ligand 11 (diastereomer mixture)]
The test can be described thus: probe-labelled cysteine peptide fold change vs DMSO (competition) (log2 fold change); higher = less target engagement (more negative = stronger competition). To be noted: 10 µM; THP-1; incubation time: 4 h.
With “FASN_P49327_135_DPETLVGYSMVGCQR (UniProt P49327)”, the “probe-labelled cysteine peptide fold change” value was -0.0231. As to “FARSB_Q9NSD9_548_CAEIFAR (UniProt Q9NSD9)”, the “probe-labelled cysteine peptide fold change” value came to 5.21e-05. Then “FERMT3_Q86UX7_439_CQDEQQYAR (UniProt Q86UX7)”, with 0.232; and “FBN2_P35556_682_CDCPPGLAVGMDGR (UniProt P35556)”, with 0.118; and “FASN_P49327_1448_AINCATSGVVGLVNCLR (UniProt P49327)”, with -0.0803.

For the target “FBXL17_Q9UF56_342_CLSASLVCK (UniProt Q9UF56)”, the “probe-labelled cysteine peptide fold change” value was -0.0107. For the target “FBN2_P35556_1012_WDEDECIHPVPGK (UniProt P35556)”, the “probe-labelled cysteine peptide fold change” value stood at 0.164. Then “FAM185A_Q8N0U4_284_MGNITVDSSSGCLK (UniProt Q8N0U4)”, with 0.131; and “FAR2_Q96K12_104_EDMQELLSCTNIIFHCAATVR (UniProt Q96K12)”, with 0.462; and “FASN_P49327_779_RGLKPSCTIIPLMK (UniProt P49327)”, with -0.212.

Take “FAM47A_Q5JRC9_650_ECSSELK (UniProt Q5JRC9)”: the “probe-labelled cysteine peptide fold change” value came out at 0.0869. For the target “FANCG_O15287_503_EQGAAFNCEQGCK (UniProt O15287)”, the “probe-labelled cysteine peptide fold change” value worked out at 0.258. Turning to “FAM208A_Q9UK61_318_HVCPYAVVSFTYK (UniProt Q9UK61)”, the “probe-labelled cysteine peptide fold change” value was -0.153. For “FAM160A2_Q8N612_927_NAVYCAVIFPEFLK (UniProt Q8N612)”, the “probe-labelled cysteine peptide fold change” value was 0.127. In the case of “FASTKD2_Q9NYY8_366_SLILLDECSK (UniProt Q9NYY8)”, the “probe-labelled cysteine peptide fold change” value is 0.238. As to “FBXO4_Q9UKT5_283_VCEVVDGFIYVANAEAHK (UniProt Q9UKT5)”, the “probe-labelled cysteine peptide fold change” value was found to be 0.252.

Turning to “FBXL6_Q8N531_407_ITPAGLQDLPCR (UniProt Q8N531)”, the “probe-labelled cysteine peptide fold change” value is -0.0524. The same measure for “FANCL_Q9NW38_251_HPTMLPECFFLGADHVVKPLGIK (UniProt Q9NW38)”: -0.113; for “FAM208A_Q9UK61_538_IAQFLQFSLIQCR (UniProt Q9UK61)”: 0.17. The same measure for “FAM129A_Q9BZQ8_516_ALASTCKPELQK (UniProt Q9BZQ8)”: 0.00794; for “FCHSD1_Q86WN1_471_ALPCPAHVVFR (UniProt Q86WN1)”: -0.0327. For “FBXL20_Q96IG2_378_SCHSLER (UniProt Q96IG2)”, the “probe-labelled cysteine peptide fold change” value was 0.154.

On to “FAM20B_O75063_331_SILAPLYQCCIIR (UniProt O75063)”, for which the “probe-labelled cysteine peptide fold change” value is -0.0183. As for “FASN_P49327_1186_LLSAACR (UniProt P49327)”, the “probe-labelled cysteine peptide fold change” value was -0.0481.

Regarding “FASN_P49327_630_EAHLPPGAMAAVGLSWEECK (UniProt P49327)”, the “probe-labelled cysteine peptide fold change” value stood at 0.0913.

For the target “FBP1_P09467_39_GTGELTQLLNSLCTAVK (UniProt P09467)”, the “probe-labelled cysteine peptide fold change” value was 0.342. The same measure for “FBXL12_Q9NXK8_155_QQDPTVLPLLECIVLDRVPAFR (UniProt Q9NXK8)”: -0.0917. On to “FANCG_O15287_417_AQDALTLCEELLSR (UniProt O15287)”, for which the “probe-labelled cysteine peptide fold change” value was -0.00868.

With “FAM193A_P78312_106_LGTTTHDTCSEDTYSTLLQR (UniProt P78312)”, the “probe-labelled cysteine peptide fold change” value turned out to be 0.151. As to “FBXL18_Q96ME1_557_HLTLAQLPSVLTGSGLVNIGLQCQQLR (UniProt Q96ME1)”, the “probe-labelled cysteine peptide fold change” value is -0.202. Then “FAM129A_Q9BZQ8_194_RFSALLSDCVR (UniProt Q9BZQ8)”, with -0.125. For the target “FAM206A_Q9NX38_46_ICVITLAESHPVLQSGK (UniProt Q9NX38)”, the “probe-labelled cysteine peptide fold change” value is 0.133. Take “FAM234A_Q9H0X4_285_TGAHYILFPCASSLCGCSVK (UniProt Q9H0X4)”: the “probe-labelled cysteine peptide fold change” value turned out to be 0.152. Then “FANCI_Q9NVI1_1085_TAAPTVCLLVLSQAEK (UniProt Q9NVI1)”, with 0.0413; and “FASN_P49327_135_GTHTGVWVGVSGSETSEALSRDPETLVGYSMVGCQR (UniProt P49327)”, with 0.0623. Turning to “FCGR2A_P12318_62_LEPPWINVLQEDSVTLTCQGAR (UniProt P12318)”, the “probe-labelled cysteine peptide fold change” value worked out at 0.157. On to “FBXO30_Q8TB52_396_NVDVLSFSHAPSFNFLSNSCWSK (UniProt Q8TB52)”, for which the “probe-labelled cysteine peptide fold change” value was -0.0439. As for “FBXL15_Q9H469_255_HCHHVAESSLSR (UniProt Q9H469)”, the “probe-labelled cysteine peptide fold change” value was -0.146. The same measure for “FBXO22_Q8NEZ5_378_CNEVKDDDLFHSYTTIMALIHLGSSK (UniProt Q8NEZ5)”: 0.0477.

These data come from the supplement of paper PMC12067093, “Discovery and optimisation of a covalent ligand for TRIM25 and its application to targeted protein ubiquitination” (Chemical Science, 2025).
